Laboratory results from patent US10047050B2, “3,4-di-substituted pyridine compound, methods of using and compositions comprising the same” (ARDEA BIOSCIENCES, INC., priority 2011, dated 2018).
Several values for one entry are separate records, joined by “and”; a condition that tells them apart may be missing. Identical values can stand only once. Further values from the same series stand in other lists.

System: serum uric acid
Assay: Multi-dose Phase I clinical trial, serum uric acid (sUA), once daily for 10 days
Assay type: in vivo, human
Excerpt: A Phase 1, Randomized, Double-Blind, Placebo-Controlled Study to Evaluate Safety, Tolerability, Pharmacokinetics and Preliminary Food Effect of Multiple Rising Doses of a URAT1 Inhibitor, in Healthy Adult Male Volunteers.
Fasted subjects receive oral doses of active or placebo, once daily, for 10 days, at the following doses:
36 subjects in 3 dose groups, 12 subjects/group, are randomized […] to receive active (9/group) or placebo ([…]). All study procedures are the same regardless of whether subject receives active or placebo. Total duration of subject participation, including screening period, is ˜2-4 weeks, and the total volume of blood collected from each subject during the entire study <500 mL, (less than typically collected during a volunteer blood donation).
5 mg, active and placebo, tablets packaged in 35 count HDPE bottles, stored at controlled room temperature (15-30° C.). Placebo tablets are designed to match the active tablets—identical size, form, taste, and color, and containing the same excipients. 1 mg doses were administered as oral solutions.
Subjects dosed in the morning of Days 1-10 with ˜240 mL of room temp water.
Urine, serum and plasma samples collected periodically
PD samples frozen (−20° C.) and stored; all samples from a given subject assayed in a single analytical run.

[1] = Time 240, post dosing, group 9, 10 mg once daily for 10 days, individual subjects 3-11 (active)
[2] = Time 246, post dosing, group 9, 10 mg once daily for 10 days, individual subjects 3-11 (active)
[3] = Time 252, post dosing, group 9, 10 mg once daily for 10 days, individual subjects 3-11 (active)
[4] = Time 264, post dosing, group 9, 10 mg once daily for 10 days, individual subjects 3-11 (active)
[5] = Time 270, post dosing, group 9, 10 mg once daily for 10 days, individual subjects 3-11 (active)
[6] = Time 288, post dosing, group 9, 10 mg once daily for 10 days, individual subjects 3-11 (active)
[7] = Time 312, post dosing, group 9, 10 mg once daily for 10 days, individual subjects 3-11 (active)
[8] = group 7, 1 mg once daily for 10 days, Time 0, individual subjects 4-12
[9] = group 7, 1 mg once daily for 10 days, Time 6, individual subjects 4-12
[10] = group 7, 1 mg once daily for 10 days, Time 12, individual subjects 4-12
[11] = group 7, 1 mg once daily for 10 days, Time 24, individual subjects 4-12
[12] = group 7, 1 mg once daily for 10 days, Time 48, individual subjects 4-12
[13] = group 7, 1 mg once daily for 10 days, Time 72, individual subjects 4-12

CC(C)(Sc1ccncc1-c1ccc(C#N)c2ccccc12)C(=O)O [2-((3-(4-cyanonaphthalen-1-yl)pyridin-4-yl)thio)-2-methylpropanoic acid]
Absolute sUA concentration (Time 228, post dosing, group 9, 10 mg once daily for 10 days, individual subjects 3-11 (active)): 2.7 mg/dL and 2.3 mg/dL (2×) and 3.7 mg/dL and 2.4 mg/dL and 2.1 mg/dL and 2.9 mg/dL and 2.5 mg/dL and 3.1 mg/dL
% sUA change (from baseline) [1]: −55.6% and −48.1% and −38.7% and −50.7% and −60.3% and −62.1% and −35.9% and −50.0% and −35.7%
Absolute sUA concentration [1]: 2.4 mg/dL and 2.7 mg/dL (2×) and 4.9 mg/dL and 3.6 mg/dL (2×) and 2.5 mg/dL and 4.1 mg/dL and 3.1 mg/dL
% sUA change (from baseline) [2]: −53.7% and −40.4% and −32.5% and −50.7% and −52.9% and −51.5% and −32.8% and −41.9% and −28.6%
Absolute sUA concentration [2]: 2.5 mg/dL and 3.1 mg/dL and 5.4 mg/dL and 3.6 mg/dL (2×) and 3.2 mg/dL (2×) and 4.3 mg/dL and 4.0 mg/dL
% sUA change (from baseline) [3]: −50.0% and −44.2% and −33.8% and −54.8% and −54.4% and −53.0% and −31.3% and −37.1% and −33.9%
Absolute sUA concentration [3]: 2.7 mg/dL and 2.9 mg/dL and 5.3 mg/dL and 3.3 mg/dL and 3.1 mg/dL (2×) and 4.4 mg/dL and 3.9 mg/dL and 3.7 mg/dL
% sUA change (from baseline) [4]: −50.0% (2×) and −38.5% and −28.8% and −50.7% and −43.9% and −23.4% and −32.3% and −32.1%
Absolute sUA concentration [4]: 2.7 mg/dL and 3.2 mg/dL and 5.7 mg/dL and 3.6 mg/dL and 3.4 mg/dL and 3.7 mg/dL and 4.9 mg/dL and 4.2 mg/dL and 3.8 mg/dL
% sUA change (from baseline) [5]: −50.0% and −38.5% and −28.8% and −47.9% and −48.5% and −36.4% and −20.3% and −25.8% and −28.6%
Absolute sUA concentration [5]: 2.7 mg/dL and 3.2 mg/dL and 5.7 mg/dL and 3.8 mg/dL and 3.5 mg/dL and 4.2 mg/dL and 5.1 mg/dL and 4.6 mg/dL and 4.0 mg/dL
% sUA change (from baseline) [6]: −48.1% and −36.5% and −28.8% and −45.2% and −45.6% and −33.3% and −25.0% and −22.6% and −30.4%
Absolute sUA concentration [6]: 2.8 mg/dL and 3.3 mg/dL and 5.7 mg/dL and 4.0 mg/dL and 3.7 mg/dL and 4.4 mg/dL and 4.8 mg/dL (2×) and 3.9 mg/dL
% sUA change (from baseline) [7]: −38.9% and −26.9% and −18.8% and −34.2% and −36.8% and −24.2% and −14.1% and −16.1% and −23.2%
Absolute sUA concentration [7]: 3.3 mg/dL and 3.8 mg/dL and 6.5 mg/dL and 4.8 mg/dL and 4.3 mg/dL (2×) and 5.0 mg/dL and 5.5 mg/dL and 5.2 mg/dL
% sUA change (from baseline) [8]: 0%
Absolute sUA concentration [8]: 5.8 mg/dL and 5.6 mg/dL and 5.4 mg/dL and 7.0 mg/dL and 6.9 mg/dL and 6.7 mg/dL and 6.2 mg/dL and 6.0 mg/dL and 5.9 mg/dL
% sUA change (from baseline) [9]: −5.2% and −1.8% and −3.7% and −1.4% (2×) and 0.0% (2×) and −11.7% and −1.7%
Absolute sUA concentration [9]: 5.5 mg/dL (2×) and 5.2 mg/dL and 6.9 mg/dL and 6.8 mg/dL and 6.7 mg/dL and 6.2 mg/dL and 5.3 mg/dL and 5.8 mg/dL
% sUA change (from baseline) [10]: −12.1% and −10.7% and −9.3% and −5.7% and −7.2% and −9.0% and −1.6% and −16.7% and −10.2%
Absolute sUA concentration [10]: 5.1 mg/dL and 5.0 mg/dL (2×) and 4.9 mg/dL and 6.6 mg/dL and 6.4 mg/dL and 6.1 mg/dL (2×) and 5.3 mg/dL
% sUA change (from baseline) [11]: 0.0% and 5.4% and 1.9% and 1.4% and −4.3% and 1.5% and 8.1% and −3.3% and 1.7%
Absolute sUA concentration [11]: 5.8 mg/dL (2×) and 5.9 mg/dL and 5.5 mg/dL and 7.1 mg/dL and 6.6 mg/dL and 6.8 mg/dL and 6.7 mg/dL and 6.0 mg/dL
% sUA change (from baseline) [12]: −12.1% and −35.7% and −11.1% and −14.3% and −15.9% and −19.4% and −11.3% and −21.7% and −16.9%
Absolute sUA concentration [12]: 5.1 mg/dL and 3.6 mg/dL and 4.8 mg/dL and 6.0 mg/dL and 5.8 mg/dL and 5.4 mg/dL and 5.5 mg/dL and 4.7 mg/dL and 4.9 mg/dL
% sUA change (from baseline) [13]: −8.6% and 0.0% (4×) and −1.9% and −4.3% and −7.5% and −8.3%
Absolute sUA concentration [13]: 5.3 mg/dL (2×) and 5.6 mg/dL and 7.0 mg/dL and 6.6 mg/dL and 6.2 mg/dL (2×) and 5.5 mg/dL and 5.9 mg/dL
% sUA change (from baseline) (group 7, 1 mg once daily for 10 days, Time 96, individual subjects 4-12): −13.8% and −8.9% and −5.6% and −4.3% and −2.9% and −9.0% and −3.2% and −16.7% and −6.8%
% sUA change (from baseline) (group 7, 1 mg once daily for 10 days, Time 102, individual subjects 4-12): −24.1% and −12.5% and −9.3% and −11.4% and −10.1% and −11.9% and −8.1% and −23.3% and −8.5%
% sUA change (from baseline) (group 7, 1 mg once daily for 10 days, Time 108, individual subjects 4-12): −29.3% and −21.4% and −11.1% and −12.9% and −14.5% and −19.4% and −9.7% and −28.3% and −15.3%
% sUA change (from baseline) (group 7, 1 mg once daily for 10 days, Time 120, individual subjects 4-12): −20.7% and −10.7% and −9.3% and −5.7% and −10.1% and −7.5% and −6.5% and −16.7% and −5.1%
% sUA change (from baseline) (group 7, 1 mg once daily for 10 days, Time 144, individual subjects 4-12): −20.7% and −10.7% and −11.1% and −7.1% and −10.1% and −9.0% and −6.5% and −16.7% and −6.8%
